Our source for the binding values is publication doi:10.64898/2025.12.03.692074.

The target in the assay is FLAG-miP-FERMT3 (human). Briefly: co-IP.

These are yes or no findings as the source states them, for the method shown. Binding seen in cells or lysates may run through a third protein. Some entries that bind do so weakly or less than the wild type.

B1: TRIM8 (protein, UniProt Q9BZR9 1-551)
chain: MAENWKNCFEEELICPICLHVFVEPVQLPCKHNFCRGCIGEAWAKDSGLVRCPECNQAYNQKPGLEKNLKLTNIVEKFNALHVEKPPAALHCVFCRRGPPLPAQKVCLRCEAPCCQSHVQTHLQQPSTARGHLLVEADDVRAWSCPQHNAYRLYHCEAEQVAVCQYCCYYSGAHQGHSVCDVEIRRNEIRKMLMKQQDRLEEREQDIEDQLYKLESDKRLVEEKVNQLKEEVRLQYEKLHQLLDEDLRQTVEVLDKAQAKFCSENAAQALHLGERMQEAKKLLGSLQLLFDKTEDVSFMKNTKSVKILMDRTQTCTSSSLSPTKIGHLNSKLFLNEVAKKEKQLRKMLEGPFSTPVPFLQSVPLYPCGVSSSGAEKRKHSTAFPEASFLETSSGPVGGQYGAAGTASGEGQSGQPLGPCSSTQHLVALPGGAQPVHSSPVFPPSQYPNGSAAQQPMLPQYGGRKILVCSVDNCYCSSVANHGGHQPYPRSGHFPWTVPSQEYSHPLPPTPSVPQSLPSLAVRDWLDASQQPGHQDFYRVYGQPSTKHYVTS
In the case of B1, the binding result is recorded as “binds”.

B2: 26S proteasome non-ATPase regulatory subunit 9 (PSMD9) (protein, UniProt O00233 1-223)
chain: MSDEEARQSGGSSQAGVVTVSDVQELMRRKEEIEAQIKANYDVLESQKGIGMNEPLVDCEGYPRSDVDLYQVRTARHNIICLQNDHKAVMKQVEEALHQLHARDKEKQARDMAEAHKEAMSRKLGQSESQGPPRAFAKVNSISPGSPASIAGLQVDDEIVEFGSVNTQNFQSLHNIGSVVQHSEGKPLNVTVIRRGEKHQLRLVPTRWAGKGLLGCNIIPLQR
With B2, the binding result was “binds”.
